# PubChem BioAssay AID652243 | Drosophila RNAi Screening Center, 2013
# Aim: 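Fly genes required for human androgen receptor driven transcription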 (primary screen)
# System: Drosophila S2R+ cells
# Reagent: long dsRNA against Drosophila genes
# Duration: 72 h (48 h, then 24 h hormone)
# Challenge: synthetic androgen R1881 at 10 nM for 24 h
# Measured: 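Per-well raw luminescence of the androgen-driven firefly reporter and of the Renilla control, two replicates each, without normalisation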
# Direction: firefly reporter light: higher = more light from androgen-responsive reporter; Renilla control light: higher = more constitutive control signal (cell number, transfection)
# Call rule: 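Across duplicate plates, a knock-down whose log firefly/Renilla ratio shifted a set fold down or up from the GFP/LacZ control mean was a hit; the downward cut appears as both 1.5 and 3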
# Meaning of the calls: active = hit: reporter lowered or raised; inactive = no hit
# The screen tested about 24,000 reagents; this is an unselected part of those that have a named target and a result. Of all reagents, 246 (1%) were called active. 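Plates not normalised; calls are printed but the firefly/Renilla ratio behind them is not deposited; fold cut for lowering reported inconsistently.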 The raw values are shown without normalisation. Reagent sequences are not shown. Not given: the amount of reagent.
Target gene,DRSC id,"firefly reporter light, replicate 1","firefly reporter light, replicate 2","Renilla control light, replicate 1","Renilla control light, replicate 2",outcome
pncr004:X (retired record),DRSC37922,6.68e5,6.74e5,1.40e6,1.58e6,inactive
Cdk9,DRSC04601,1.60e5,1.89e5,1.67e6,1.28e6,inactive
CG4459,DRSC15582,3.91e5,3.44e5,3.27e6,3.53e6,inactive
CG7409,DRSC10842,1.59e5,1.03e5,1.68e6,1.74e6,inactive
CG7409,DRSC30043,9.45e5,8.06e5,1.49e6,1.11e6,inactive
Kah,DRSC07887,1.60e5,2.01e5,4.14e5,4.87e5,inactive
Kah,DRSC08515,1.44e5,1.22e5,2.73e6,2.34e6,inactive
Kah,DRSC25608,1.03e6,6.93e5,5.42e5,6.05e5,inactive
CG12531,DRSC19466,1.26e5,81407,3.37e5,2.54e5,inactive
CG12531,DRSC27679,2.37e5,3.16e5,7.97e5,7.97e5,inactive
CG7137,DRSC07017,8.41e5,7.34e5,1.34e6,1.05e6,inactive
LIMK1,DRSC19811,1.11e5,93769,7.01e5,7.61e5,inactive
LIMK1,DRSC36976,,,,,inactive
LIMK1,DRSC36977,,,,,inactive
CCT5,DRSC07357,1.17e6,5.88e5,2.21e6,9.99e5,inactive
CCT5,DRSC26229,2.18e5,1.82e5,6.67e5,6.71e5,inactive
RNF220,DRSC15652,1.25e5,1.53e5,6.75e5,8.75e5,inactive
RNF220,DRSC28017,6.76e5,5.08e5,1.81e6,1.09e6,inactive
Cyp4d20,DRSC08654,86442,63957,1.02e6,1.13e6,inactive
Cyp4d20,DRSC25418,5.94e5,4.20e5,6.50e5,5.72e5,inactive
CG32650,DRSC19899,60557,64560,7.51e5,7.67e5,inactive
CG11294,DRSC17777,53674,35126,1.87e6,2.08e6,inactive
CG11294,DRSC25060,6.09e5,7.31e5,1.58e6,1.39e6,inactive
Eip75B,DRSC23047,6.63e5,6.59e5,8.93e5,9.64e5,inactive
Eip75B,DRSC37540,5.64e5,4.60e5,1.61e6,1.21e6,inactive
lncRNA:CR32027,DRSC09571,2.03e5,4.17e5,94207,97095,inactive
Npl4,DRSC15615,80715,1.11e5,4.76e5,4.89e5,inactive
Npl4,DRSC15616,1.56e5,2.03e5,2.26e6,2.31e6,inactive
Gale,DRSC08234,9.99e5,9.83e5,1.15e6,1.52e6,inactive
CG9394,DRSC04550,1.71e5,2.03e5,1.38e6,1.68e6,inactive
CG15140,DRSC02440,2.76e5,3.26e5,2.77e6,3.42e6,inactive
Fip1,DRSC12147,40916,20877,4.55e5,1.69e5,inactive
CG2616,DRSC15440,76033,87551,1.66e6,1.80e6,inactive
CG2616,DRSC24316,7.34e5,8.25e5,7.85e5,7.37e5,inactive
Stam,DRSC03444,1.02e6,9.97e5,2.81e6,2.63e6,inactive
Stam,DRSC25607,2.23e5,2.20e5,6.10e5,4.75e5,inactive
Stam,DRSC36778,,,,,inactive
Stam,DRSC36779,,,,,inactive
CG31875,DRSC21975,6.51e5,5.49e5,3.52e5,4.22e5,inactive
CG17724,DRSC06687,4.21e5,4.90e5,8.88e5,9.96e5,inactive
CG17724,DRSC27618,1.82e5,2.24e5,5.01e5,7.47e5,inactive
CG11000,DRSC12082,4.23e5,2.45e5,5.18e5,2.53e5,inactive
CG11000,DRSC12158,1.03e5,1.09e5,2.89e6,2.67e6,inactive
CG11000,DRSC27020,4.41e5,3.38e5,7.32e5,5.52e5,inactive
CG4558,DRSC18369,1.24e5,60703,8.38e5,4.41e5,inactive
Gbeta76C,DRSC11174,41218,30782,4.27e5,3.52e5,inactive
CG13436,DRSC06396,55901,47770,6.66e5,7.31e5,inactive
snRNA:U2:34ABb,DRSC37897,8.42e5,8.64e5,1.30e6,1.64e6,inactive
CG32773 (retired record),DRSC17330,5.30e5,7.64e5,4.10e5,6.16e5,inactive
CheA46a,DRSC38883,9.59e5,9.15e5,2.49e6,1.99e6,inactive
CG30427,DRSC04014,1.57e5,1.84e5,4.18e5,3.70e5,inactive
CG30427,DRSC04311,1.78e6,8.20e5,2.62e6,2.12e6,inactive
CG30427,DRSC04323,2.80e5,2.29e5,1.38e6,1.22e6,inactive
CG30427,DRSC26361,3.07e5,2.44e5,6.62e5,6.64e5,inactive
CG14853,DRSC14977,4.56e5,3.62e5,3.37e6,2.67e6,inactive
CG14853,DRSC21528,6.88e5,5.21e5,1.58e6,1.38e6,inactive
CG9970,DRSC08644,1.50e5,76452,2.12e6,1.44e6,inactive
Lam,DRSC03359,85457,91900,4.90e5,4.76e5,inactive
Lam,DRSC28152,4.57e5,3.70e5,1.54e6,1.39e6,inactive

5 entries from above in another layout:
Target gene | DRSC id | firefly reporter light, replicate 1 | firefly reporter light, replicate 2 | Renilla control light, replicate 1 | Renilla control light, replicate 2 | outcome
RNF220 | DRSC28017 | 6.76e5 | 5.08e5 | 1.81e6 | 1.09e6 | inactive
Cyp4d20 | DRSC08654 | 86442 | 63957 | 1.02e6 | 1.13e6 | inactive
Cyp4d20 | DRSC25418 | 5.94e5 | 4.20e5 | 6.50e5 | 5.72e5 | inactive
CG32650 | DRSC19899 | 60557 | 64560 | 7.51e5 | 7.67e5 | inactive
CG11294 | DRSC17777 | 53674 | 35126 | 1.87e6 | 2.08e6 | inactive
